Measured data: PubChem BioAssay AID1259284 (Sanger Institute, 2017)
Purpose: 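Kinase genes needed for growth or acting with cancer drugs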 (primary screen). System: SW48 human colorectal cancer cells. Reagent: siRNA pool against human genes. Treatment: anchor drug BYL719 at 1 µM, cetuximab at 5 µg/ml or trametinib at 10 nM, or DMSO vehicle alone. Measured: 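Viability scaled to non-targeting control pool, robust z-score from controls, and synergy scores for each drug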. Direction: robust z-score, no drug: higher = more cells survive knock-down; viability, no drug: higher = more viable cells. Call rule: 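a knock-down is essential if viability without drug gives a robust z-score under -3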. Calls: active = essential without drug; inactive = no change without drug.
The deposit covers 794 reagents; below is an unselected part. 16 of them (2%) were called active. 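Calls concern knock-down without drug only; drug synergy was judged apart, with scores above 0.15 taken as synergy.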 No viability above 1 is reported: the scale is capped. Further read-outs or replicates are left out here. Not stated in the record: the amount of reagent, the time to read-out.

gene | robust z-score, no drug | viability, no drug (fraction of control) | call
GRK1 (G protein-coupled receptor kinase 1) | 0.426 | 1 | inactive
PDGFRB (platelet derived growth factor receptor beta) | -1.73 | 0.815 | inactive
PAK3 (p21 (RAC1) activated kinase 3) | 0.426 | 1 | inactive
NRAS (NRAS proto-oncogene, GTPase) | 0.426 | 1 | inactive
BTK (Bruton tyrosine kinase) | 0.426 | 1 | inactive
TCF7L2 (transcription factor 7 like 2) | 0.426 | 1 | inactive
PDK4 (pyruvate dehydrogenase kinase 4) | 0.426 | 1 | inactive
DCK (deoxycytidine kinase) | 0.275 | 0.987 | inactive
NTRK1 (neurotrophic receptor tyrosine kinase 1) | 0.426 | 1 | inactive
ACVR1C (activin A receptor type 1C) | 0.426 | 1 | inactive
WNK2 (WNK lysine deficient protein kinase 2) | 0.426 | 1 | inactive
UCK2 (uridine-cytidine kinase 2) | 0.426 | 1 | inactive
RPS6KL1 (ribosomal protein S6 kinase like 1) | 0.426 | 1 | inactive
CDK14 (cyclin dependent kinase 14) | 0.426 | 1 | inactive
AKT1 (AKT serine/threonine kinase 1) | 0.426 | 1 | inactive
SRMS | -2.57 | 0.743 | inactive
TTK (TTK protein kinase) | -5.92 | 0.455 | active
CDK8 (cyclin dependent kinase 8) | 0.426 | 1 | inactive
MAP3K19 (mitogen-activated protein kinase kinase kinase 19) | 0.426 | 1 | inactive
HUNK (hormonally up-regulated Neu-associated kinase) | 0.426 | 1 | inactive
SNRK (SNF related kinase) | 0.401 | 0.998 | inactive
CHEK1 (checkpoint kinase 1) | -2.33 | 0.764 | inactive
CDC42BPB (CDC42 binding protein kinase beta) | 0.426 | 1 | inactive
CHKB (choline kinase beta) | 0.426 | 1 | inactive
ATR (ATR checkpoint kinase) | 0.426 | 1 | inactive
LMBR1 (limb development membrane protein 1) | 0.426 | 1 | inactive
STK32C (serine/threonine kinase 32C) | 0.426 | 1 | inactive
PKIA (cAMP-dependent protein kinase inhibitor alpha) | 0.426 | 1 | inactive
PKM (pyruvate kinase M1/2) | 0.426 | 1 | inactive
PRKAR2A | 0.426 | 1 | inactive
EPHB6 (EPH receptor B6) | 0.426 | 1 | inactive
TSSK6 (testis specific serine kinase 6) | -0.464 | 0.924 | inactive
CDK5R1 (cyclin dependent kinase 5 regulatory subunit 1) | 0.426 | 1 | inactive
YES1 (YES proto-oncogene 1, Src family tyrosine kinase) | -0.511 | 0.92 | inactive
CAMK1 (calcium/calmodulin dependent protein kinase I) | 0.426 | 1 | inactive
MYLK2 (myosin light chain kinase 2) | -1.48 | 0.837 | inactive
MLKL (mixed lineage kinase domain like pseudokinase) | 0.426 | 1 | inactive
MPP1 (MAGUK p55 scaffold protein 1) | 0.426 | 1 | inactive
ACVR1 (activin A receptor type 1) | 0.426 | 1 | inactive
TSKS (testis specific serine kinase substrate) | 0.426 | 1 | inactive
NUP107 (nucleoporin 107) | -1.19 | 0.862 | inactive
HCK (HCK proto-oncogene, Src family tyrosine kinase) | 0.426 | 1 | inactive
TLK2 (tousled like kinase 2) | 0.426 | 1 | inactive
DIS3 (DIS3 exosome endoribonuclease and 3'-5' exoribonuclease) | 0.426 | 1 | inactive
CNOT1 (CCR4-NOT transcription complex subunit 1) | -6.22 | 0.43 | active
LYN (LYN proto-oncogene, Src family tyrosine kinase) | 0.426 | 1 | inactive
